Source: publication PMC3359988
No constants are given. Whether binding was seen depends on the method and setting. Some entries that bind do so weakly or less than the wild type.

Target: VpsT (Vibrio cholerae) (UniProt K7RXY0)
Experiment: two-hybrid

VpsT (from UniProt K7RXY0 1-224)
binding: binds
